“And” between values parts separate entries of the source, which are not always exact repeats. Equal entries are not always repeated. The list shows a part of the results. The main result of the screen is listed elsewhere. These columns were measured beside it and carry no call. Most of these compounds were active or inconclusive in the main read-out, so they are no random draw. Potencies come from curve fits of mixed quality, noted in brackets.
Experiment: qHTS Assay for Modulators of Lamin A Splicing
Conditions: HeLa LMNA splicing GFP/RFP minigene ratio, 48 h
Method in brief: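 Read-out is the ratio of GFP to DsRed2 object intensity, acquired by 488 nm laser-scanning cytometry on HeLa lamin A-EGFP minigene reporter cells. Compound incubation 48 hrs at 37 °C in Opti-MEM with 2% FBS; DMSO 0.5% final.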

[1] = measured here: GFP splicing reporter channel
[2] = measured here: RFP viability control channel

Structure (SMILES) | AC50 [1] | AC50 [2]
CC(C)(O)C1Cc2cc(/C=C/C(=O)O)c(O)cc2O1 (stereo unspecified) | 1.41 µM [rising, full curve, poor fit] | –
COCCn1nnnc1C(c1ccccc1Cl)N1CCN(c2ccccc2OC)CC1 (stereo unspecified) | – | 14.1 µM [rising, partial curve]
O=C(/C=C/c1ccc(Cl)cc1Cl)N(Cc1ccc(Cl)cc1)C1CCS(=O)(=O)C1 (stereo unspecified) | – | 12.6 µM [rising, single point]
CN1CCc2c(c3ccccc3n2Cc2ccccc2)C1 | – | 0.355 µM [rising, full curve, poor fit]
CCc1ccc(S(=O)(=O)Nc2cccc(-c3ccc(OC)nn3)c2)s1 | 3.98 µM [falling, partial curve, poor fit] | –
Fc1ccc(C(c2ccc(F)cc2)N2CCN(C/C=C/c3ccccc3)CC2)cc1 | 3.55 nM [falling, full curve, poor fit] and 17.8 µM [falling, single point] | 3.16 nM [falling, full curve, poor fit] and 22.4 µM [falling, partial curve] and 22.4 µM [rising, single point]
COc1cc(Cl)c(S(=O)(=O)NCc2cccnc2)cc1Cl | 31.6 µM [rising, single point] | –
O=[N+]([O-])c1ccc(-c2ccc(S(=O)(=O)NCCN3CCCC3)cc2)cc1 | – | 35.5 µM [rising, single point]
COc1ccc(-c2nc(-c3ccc(NC(=O)c4ccncc4)cc3)no2)cc1OC | 22.4 µM [rising, single point] | 22.4 µM [rising, single point]
O=C(c1cnn2c(C(F)(F)F)cc(-c3ccccc3)nc12)N1CCCCC1c1cccnc1 (stereo unspecified) | 35.5 µM [falling, single point] | 35.5 µM [falling, single point]
Cc1ccccc1Nc1nnc(SCC(=O)NCc2ccco2)s1 | 0.0631 µM [rising, full curve, poor fit] | –
O=C(Nc1ccc(Cl)c(Cl)c1)c1cccc(S(=O)(=O)NCc2cccnc2)c1 | – | 7.08 µM [rising, full curve]
Cc1ccc(OCCN2CCN(CC(O)Cn3c4ccccc4c4ccccc43)CC2)cc1 (stereo unspecified) | 35.5 µM [falling, single point] | 22.4 µM [falling, single point]
CC(C)c1nc2oc3c(=O)[nH]cnc3c2c2c1CCC2 | 11.2 µM [falling, partial curve] | 35.5 µM [falling, single point]
CCN=C(Nc1ccc2c(c1)OCO2)SC1CC(=O)N(c2ccccc2F)C1=O (stereo unspecified) | – | 12.6 µM [rising, partial curve]
O=c1cc(N2CCCCC2)c(-c2ccccc2)nn1Cc1ccccc1Cl | 20 µM [falling, partial curve, poor fit] | 12.6 µM [falling, partial curve]
Cc1nn(C)c(Oc2ccccc2)c1CCNS(=O)(=O)c1ccc(Cl)cc1 | – | 35.5 µM [rising, single point]
Clc1ccc(-n2ncc3c(NCC4CCCO4)ncnc32)cc1 (stereo unspecified) | – | 35.5 µM [rising, single point]
CCOC(=O)c1c(C)c(C)n(Cc2ccc(OC)c(OC)c2)c1C | 35.5 µM [rising, single point] | 20 µM [rising, partial curve]
O=C(NCCc1c[nH]c2ccccc12)C(=O)NCC1OCCCN1S(=O)(=O)c1cc(F)ccc1F (stereo unspecified) | 25.1 µM [falling, single point] | –
COc1ccc(/C=N/N=C2/NC(=O)C(CC(=O)O)S2)cc1OS(=O)(=O)c1ccccc1 (stereo unspecified) | 0.158 µM [falling, full curve, poor fit] | –
CCOC(=O)CC(=O)Nc1nnc(C(C)C)s1 | – | 5.62 µM [falling, partial curve]
O=C1C=C(NCCOC23CC4CC(CC(C4)C2)C3)C2(CCCCC2)O1 | – | 10 µM [falling, partial curve]
Cc1ccc(NC(=O)COC(=O)c2cccnc2)cc1 | 0.0282 µM [rising, full curve] | –
N#C/C(=C\c1ccc(N2CCCCC2)o1)C(=O)Nc1cccc(Br)c1 | 0.00708 µM [falling, full curve, poor fit] | 3.98 µM [falling, full curve]
Cc1ccc(C)n1-c1ccc2c(c1)COC2=O | – | 35.5 µM [falling, single point]
O=C1CCCc2nc(N3CCN(C(c4ccccc4)c4ccccc4)CC3)ncc21 | 25.1 µM [rising, single point] | 17.8 µM [rising, partial curve]
Cc1cc(C(=O)CN2C(=O)NC3(CCCc4sccc43)C2=O)c(C)n1-c1ccccc1 (stereo unspecified) | 14.1 µM [rising, single point] | 15.8 µM [rising, single point]

Structure (SMILES) | AC50 [1] | AC50 [2]
CC(=O)NC1=NC(=O)/C(=C/c2cn(C(C)=O)nc2-c2ccccc2)S1 | 35.5 µM [falling, single point] | –
CCc1ccccc1NC(=O)Cn1nnc(C(=O)Nc2ccc(OC)c(OC)c2)c1N | 1.26 µM [falling, partial curve, poor fit] | 2 µM [falling, partial curve]
CCOC(=O)CC(C)(C)/C(C)=N/Nc1ccc([N+](=O)[O-])cc1[N+](=O)[O-] | – | 31.6 µM [rising, single point]
CCOC(=O)c1c(NC(=O)c2nn(C)cc2[N+](=O)[O-])sc(C)c1C | – | 35.5 µM [falling, single point]
COc1ccccc1C(=O)Nc1onc(C)c1C#N | – | 0.0282 µM [falling, full curve, poor fit]
O=S(=O)(c1ccccc1)N1CCN=C1SCc1ccc(Cl)c(Cl)c1 | 22.4 µM [rising, single point] | 14.1 µM [rising, partial curve]
CC(C)Cn1c(Br)nc2c1c(=O)n(CCC#N)c(=O)n2C | – | 35.5 µM [rising, single point]
C[C@@H](C(=O)NCc1ccccc1)[C@@H]1C[C@@]1(C)[C@@H](NC(=O)OCc1ccccc1)c1ccccc1 | – | 12.6 µM [rising, partial curve, poor fit]
Cc1ccccc1NC(=O)c1ccc(F)c(S(=O)(=O)N2CCc3ccccc3C2)c1 | 15.8 µM [rising, partial curve] | –
Cc1cc(C)c(S(=O)(=O)N2CCC(N3CCN(Cc4ccc(F)cc4)C(=O)C3=O)CC2)c(C)c1 | – | 35.5 µM [falling, partial curve, poor fit]
Cc1ccc(NC(=O)CCNS(=O)(=O)c2ccc3c(c2)CCN3C(=O)C2CC2)c(Cl)c1 | 0.141 µM [rising, full curve, poor fit] | 0.141 µM [rising, full curve, poor fit]
CCOC(=O)c1cn(-c2c(Cl)cccc2Cl)c2cc(Cl)c([N+](=O)[O-])cc2c1=O | – | 1 µM [falling, full curve, poor fit]
CCc1nnc(NC(=O)c2cccc(C(=O)Nc3nnc(CC)s3)n2)s1 | – | 0.794 µM [rising, full curve]
O=S(=O)(Nc1cccc(S(=O)(=O)N2CCOCC2)c1)c1ccc(Cl)s1 | – | 35.5 µM [falling, single point]
Cc1nnc(SCC(=O)Nc2cc(C(C)(C)C)nn2-c2ccccc2)s1 | – | 35.5 µM [rising, single point]
O=C1CS/C(=N/N=C/c2ccccc2OS(=O)(=O)c2ccccc2)N1 | 17.8 µM [rising, single point] | 17.8 µM [rising, single point]
O=C1CCCN1CCCNC(=S)Nc1ccc(F)cc1 | 0.141 µM [rising, full curve, poor fit] | –
O=C(Cn1c(N2CCN(C/C=C/c3ccccc3)CC2)nc2ccccc21)c1ccccc1 | – | 35.5 µM [rising, single point]
Cc1ccc(S(=O)(=O)N2CCC(=O)N(C(COCc3cccc(C)c3)Cc3ccccc3)CC2)cc1 (stereo unspecified) | 8.91 µM [rising, partial curve, poor fit] | 17.8 µM [rising, partial curve]
CN(C)c1ccc(C(CNS(=O)(=O)c2ccc(F)cc2)N2CCCC2)cc1 (stereo unspecified) | – | 3.55 µM [rising, partial curve, poor fit]
Clc1ccc(-c2nnc(Sc3nc4ccccc4o3)c3ccccc23)cc1 | – | 11.2 µM [falling, partial curve]
Cc1ccc(C2=Nc3ccccc3N(C(=O)c3ccccc3)C(C)C2)cc1 (stereo unspecified) | 10 µM [rising, partial curve] | 8.91 µM [rising, partial curve]
CCCOc1ccc(CC(CC(=O)O)(C(=O)O)C(=O)O)cc1 | – | 5.62 µM [rising, single point]
Cc1onc(-c2ccccc2)c1C(=O)c1c[nH]c(C(=O)NCCCN2CCOCC2)c1 | 35.5 µM [rising, partial curve, poor fit] | –
CCCCNC(=S)N(C)/N=C/c1c(F)cccc1F | 11.2 µM [rising, single point] | –
O=C(OCc1ccccc1)c1ccc2c(c1)-c1ccccc1C2=O | – | 12.6 µM [rising, partial curve]
CCOc1ccc(S(=O)(=O)N2CCc3ccccc3C2)cc1 | 12.6 µM [rising, single point] | –

Ordered by length of the SMILES (low to high): some entries from above
Structure (SMILES) | AC50 [1] | AC50 [2]
COc1ccccc1C(=O)Nc1onc(C)c1C#N | – | 0.0282 µM [falling, full curve, poor fit]
CCCCNC(=S)N(C)/N=C/c1c(F)cccc1F | 11.2 µM [rising, single point] | –
Cc1ccccc1Nc1nnc(SCC(=O)NCc2ccco2)s1 | 0.0631 µM [rising, full curve, poor fit] | –
Clc1ccc(-n2ncc3c(NCC4CCCO4)ncnc32)cc1 (stereo unspecified) | – | 35.5 µM [rising, single point]
CCCOc1ccc(CC(CC(=O)O)(C(=O)O)C(=O)O)cc1 | – | 5.62 µM [rising, single point]
O=S(=O)(c1ccccc1)N1CCN=C1SCc1ccc(Cl)c(Cl)c1 | 22.4 µM [rising, single point] | 14.1 µM [rising, partial curve]
COCCn1nnnc1C(c1ccccc1Cl)N1CCN(c2ccccc2OC)CC1 (stereo unspecified) | – | 14.1 µM [rising, partial curve]
Cc1ccc(C2=Nc3ccccc3N(C(=O)c3ccccc3)C(C)C2)cc1 (stereo unspecified) | 10 µM [rising, partial curve] | 8.91 µM [rising, partial curve]
CN(C)c1ccc(C(CNS(=O)(=O)c2ccc(F)cc2)N2CCCC2)cc1 (stereo unspecified) | – | 3.55 µM [rising, partial curve, poor fit]
Fc1ccc(C(c2ccc(F)cc2)N2CCN(C/C=C/c3ccccc3)CC2)cc1 | 3.55 nM [falling, full curve, poor fit] and 17.8 µM [falling, single point] | 3.16 nM [falling, full curve, poor fit] and 22.4 µM [falling, partial curve] and 22.4 µM [rising, single point]
O=C(Nc1ccc(Cl)c(Cl)c1)c1cccc(S(=O)(=O)NCc2cccnc2)c1 | – | 7.08 µM [rising, full curve]
O=[N+]([O-])c1ccc(-c2ccc(S(=O)(=O)NCCN3CCCC3)cc2)cc1 | – | 35.5 µM [rising, single point]
Cc1onc(-c2ccccc2)c1C(=O)c1c[nH]c(C(=O)NCCCN2CCOCC2)c1 | 35.5 µM [rising, partial curve, poor fit] | –
O=C(/C=C/c1ccc(Cl)cc1Cl)N(Cc1ccc(Cl)cc1)C1CCS(=O)(=O)C1 (stereo unspecified) | – | 12.6 µM [rising, single point]
O=C(NCCc1c[nH]c2ccccc12)C(=O)NCC1OCCCN1S(=O)(=O)c1cc(F)ccc1F (stereo unspecified) | 25.1 µM [falling, single point] | –

From PubChem BioAssay AID1487 (National Center for Advancing Translational Sciences (NCATS), 2009)
